The supplement of paper PMC9233669
Variants at the background level are over-represented here.

Tests used:
biotinyl-Trp-oxazolone = assay: self-aminoacylation, catalytic enhancement (BWO) (fold over background); higher = more active; k-Seq, kA / k0A0; sequences stand for … in GGGAAUGGAUCCACAUCUACGAAUUC…UUCACUGCAGACUUGACGAAGCUG
Procedure, shortened: (§1)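 Catalytic enhancement equals the median kA over the uncatalyzed rate, the latter read from the low-activity peak of a bimodal Gaussian fit. Values of kA came from fitting each sequence's fraction reacted to a pseudo-first-order model, with 1000 bootstraps. Reacted RNA was captured with streptavidin and quantified by triplicate qPCR and Illumina sequencing after 90 minutes at room temperature with 2–1250 μM biotinyl-aminoacyl-oxazolone and 0.43 μM mutagenized RNA pools bearing a 21-nt variable region.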

biotinyl-Val-oxazolone = assay: self-aminoacylation, catalytic enhancement (BVO) (fold over background); higher = more active; k-Seq, kA / k0A0; sequences stand for … in GGGAAUGGAUCCACAUCUACGAAUUC…UUCACUGCAGACUUGACGAAGCUG
Procedure, shortened: as §1

biotinyl-Met-oxazolone = assay: self-aminoacylation, catalytic enhancement (BMO) (fold over background); higher = more active; k-Seq, kA / k0A0; sequences stand for … in GGGAAUGGAUCCACAUCUACGAAUUC…UUCACUGCAGACUUGACGAAGCUG
Procedure, shortened: as §1

biotinyl-Leu-oxazolone = assay: self-aminoacylation, catalytic enhancement (BLO) (fold over background); higher = more active; k-Seq, kA / k0A0; sequences stand for … in GGGAAUGGAUCCACAUCUACGAAUUC…UUCACUGCAGACUUGACGAAGCUG
Procedure, shortened: as §1

biotinyl-Ile-oxazolone = assay: self-aminoacylation, catalytic enhancement (BIO) (fold over background); higher = more active; k-Seq, kA / k0A0; sequences stand for … in GGGAAUGGAUCCACAUCUACGAAUUC…UUCACUGCAGACUUGACGAAGCUG
Procedure, shortened: as §1

| Sequence | self-aminoacylation (biotinyl-Trp-oxazolone) | self-aminoacylation (biotinyl-Val-oxazolone) | self-aminoacylation (biotinyl-Met-oxazolone) | self-aminoacylation (biotinyl-Leu-oxazolone) | self-aminoacylation (biotinyl-Ile-oxazolone) |
| --- | --- | --- | --- | --- | --- |
| AACUUUGCUAAUAGUUGCAAG [Fam3.1 aminoacylation ribozyme variant] | 1.43 | 1.84 | 1.88 | 1.58 |  |
| AAGAUGGCUAAUAGUCGCAAG [Fam3.1 aminoacylation ribozyme variant] | 1.88 | 1.6 | 1.33 | 1.42 | 1.76 |
| AAGAUUGCUAAUAGUCGCAAC [Fam3.1 aminoacylation ribozyme variant] | 0.998 | 1.62 | 1.5 | 1.62 | 1.64 |
| AAGCUUGCUAAUGGUCGCAAG [Fam3.1 aminoacylation ribozyme variant] | 3.95 | 1.76 | 2.83 | 1.83 | 1.77 |
| AAGUAAGCUAAUAGUCGCAAG [Fam3.1 aminoacylation ribozyme variant] | 1.5 | 1.33 | 1.18 | 1.43 | 1.55 |
| AAGUAUACUAAUAGUCGCAAG [Fam3.1 aminoacylation ribozyme variant] | 1.44 | 1.18 | 1.52 | 1.56 | 1.4 |
| AAGUCUGCUAAGAGUCGCAAG [Fam3.1 aminoacylation ribozyme variant] | 1.92 | 0.861 | 1.21 | 0.828 | 0.836 |
| AAGUUAGCUAAAAGUCGCAAG [Fam3.1 aminoacylation ribozyme variant] | 1.64 | 1.43 | 1.71 |  | 1.85 |
| AAGUUAGCUAAUAGUCGAAAG [Fam3.1 aminoacylation ribozyme variant] | 1.89 | 1.02 | 1.52 | 1.51 | 1.27 |
| AAGUUAGCUAAUUGUCGCAAG [Fam3.1 aminoacylation ribozyme variant] | 1.95 | 1.63 | 1.7 | 1.91 | 1.81 |
| AAGUUCGCUAGUAGUCGCAAG [Fam3.1 aminoacylation ribozyme variant] | 1.33 | 1.28 | 0.987 | 1.12 | 1.81 |
| AAGUUGGCUAAUAGUUGCAAG [Fam3.1 aminoacylation ribozyme variant] | 1.92 | 1.29 | 1.53 | 1.09 | 1.39 |
| AAGUUGGCUAAUUGUCGCAAG [Fam3.1 aminoacylation ribozyme variant] | 2.71 | 1.71 | 1.93 | 2.41 | 1.99 |
| AAGUUGUCUAAUAGUCGCAAG [Fam3.1 aminoacylation ribozyme variant] | 1.78 | 1.49 | 1.39 | 1.44 | 1.99 |
| AAGUUUGCGAAUAGUUGCAAG [Fam3.1 aminoacylation ribozyme variant] | 1.16 | 0.803 | 1.2 | 0.661 | 0.915 |
| AAGUUUGCGGAUAGUCGCAAG [Fam3.1 aminoacylation ribozyme variant] | 0.996 | 1.04 | 0.91 | 1.31 | 0.99 |
| AAGUUUGCUAAUAGUCGCCUG [Fam3.1 aminoacylation ribozyme variant] | 1.66 | 1.27 | 1.18 | 1.43 | 1.66 |
| AAGUUUGCUGACAGUCGCAAG [Fam3.1 aminoacylation ribozyme variant] | 1.45 | 1.11 | 1.32 | 1.12 | 1.03 |
| AAGUUUGGUAAGAGUCGCAAG [Fam3.1 aminoacylation ribozyme variant] | 1.31 | 1.3 | 1.3 | 1.43 | 1.58 |
| AAGUUUUCUAAUUGUCGCAAG [Fam3.1 aminoacylation ribozyme variant] | 1.82 | 1.62 | 1.56 | 1.62 | 1.62 |
| AAUACCCUGGUCAUCGAGUUA [Fam2.1 aminoacylation ribozyme variant] | 1.13 | 1.13 | 0.953 | 1.01 | 0.981 |
| AAUCACCUAGGUCAUCGUGUG [Fam2.2 aminoacylation ribozyme variant] | 1.41 | 1.06 | 1.44 | 1.5 | 1.22 |
| AAUUUUGCUAAUAGUCGCCAG [Fam3.1 aminoacylation ribozyme variant] | 1.82 | 1.66 | 1.47 | 1.52 | 1.78 |
| AAUUUUGCUAAUGGUCGCAAG [Fam3.1 aminoacylation ribozyme variant] | 1.83 | 1.4 | 1.33 | 1.59 | 1.66 |
| ACGUUAGCUAAUAGUCGCAAG [Fam3.1 aminoacylation ribozyme variant] | 0.7 | 1.1 | 1.89 | 1.65 | 1.75 |
